Assay results as given in patent publication US20240366728A1, “Treatment of Diabetes Mellitus” (Carmot Therapeutics Inc., priority 2023, published 2024).
For at least one compound, name, drawing or mass did not settle the structure.

Sequences of proteins named here, by UniProt entry; tags and fusion partners are left off. Residues count along the entry.
UniProt P43220, 24-463: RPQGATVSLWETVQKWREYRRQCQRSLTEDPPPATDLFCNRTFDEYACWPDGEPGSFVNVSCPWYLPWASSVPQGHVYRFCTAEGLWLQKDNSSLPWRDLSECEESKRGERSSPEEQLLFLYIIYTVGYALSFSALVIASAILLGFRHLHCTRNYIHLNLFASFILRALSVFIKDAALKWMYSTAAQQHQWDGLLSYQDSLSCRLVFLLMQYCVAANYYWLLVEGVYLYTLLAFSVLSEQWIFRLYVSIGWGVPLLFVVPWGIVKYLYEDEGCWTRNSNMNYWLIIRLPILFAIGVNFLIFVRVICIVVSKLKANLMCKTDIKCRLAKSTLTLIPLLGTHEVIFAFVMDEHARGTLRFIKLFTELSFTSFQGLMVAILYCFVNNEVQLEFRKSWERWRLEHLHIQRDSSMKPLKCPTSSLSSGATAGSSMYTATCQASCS

Target: human GLP-1R (Homo sapiens, UniProt P43220)
Test: β-arrestin-2 recruitment (NanoBiT), human GLP-1R
Assay type: cell-based
Protocol: To measure GLP-1R and GIPR-mediated β-arrestin recruitment, we utilized Promega's NanoBiT® technology or NanoLuc® Binary Technology. The NanoLuc luciferase is split into two subunits, called LgBiT and SmBIT, which are expressed in HEK293 cells as fusion proteins at the C-terminus of GLP-IR or GIPR and the N-terminus of β-arrestin-2. […] The next day, the media was removed and replaced with […] 1:100 dilution of Nano-Glo® Live Cell Substrate in Opti-MEM™ and equilibrated to room temperature for ten minutes. Background luminescence was measured before 10 nL compound was added using an ECHO Acoustic Liquid Handler.
To measure GLP-1R and GIPR-mediated β-arrestin recruitment, Promega's NanoBiT® technology or NanoLuc® Binary Technology were utilized. Both allow for the detection and quantification of protein: protein interactions in live cells (Samms et al., Trends Endocrinol Metab 31:410-21). The NanoLuc luciferase is split into two subunits, called LgBiT and SmBIT, which are expressed in HEK293 cells as fusion proteins at the C-terminus of GLP-1R or GIPR and the N-terminus of β-arrestin-2, respectively. […] Background luminescence was measured before 10 nL compound was added using an ECHO Acoustic Liquid Handler. Luminescence was measured at 1.5-minute intervals for 30 minutes.

## CCCCCCCCCCCCCCCC(=O)N[C@@H](CCC(=O)NCCCC[C@H](NC(=O)[C@H](CO)NC(=O)[C@@H]1CCCN1C(=O)[C@@H]1CCCN1C(=O)[C@@H]1CCCN1C(=O)[C@H](C)NC(=O)CNC(=O)[C@H](CO)NC(=O)[C@H](CO)NC(=O)[C@@H]1CCCN1C(=O)CNC(=O)CNC(=O)[C@H](C)NC(=O)[C@H](CC(C)C)NC(=O)[C@H](CC(C)C)NC(=O)[C@H](Cc1c[nH]c2ccccc12)NC(=O)[C@H](CC(N)=O)NC(=O)[C@@H](NC(=O)[C@H](Cc1ccccc1)NC(=O)[C@H](CCC(=O)O)NC(=O)C(C)(C)NC(=O)[C@H](C)NC(=O)[C@H](C)NC(=O)[C@H](CCC(N)=O)NC(=O)[C@H](CCCCN)NC(=O)[C@H](CC(=O)O)NC(=O)[C@H](CC(C)C)NC(=O)[C@H](Cc1ccc(O)cc1)NC(=O)[C@@H](NC(=O)[C@H](CO)NC(=O)[C@H](Cc1ccc(O)cc1)NC(=O)[C@H](CC(=O)O)NC(=O)[C@H](CO)NC(=O)[C@@H](NC(=O)[C@H](Cc1ccccc1)NC(=O)[C@@H](NC(=O)CNC(=O)[C@H](CCC(=O)O)NC(=O)CSCC(=O)NCCN1CCCCC1=O)[C@@H](C)O)[C@@H](C)O)[C@@H](C)CC)C(C)C)C(N)=O)C(=O)O [CT-868]
  β-arrestin recruitment at GLP-1R (in words): complete absence of β-arrestin recruitment
